In article PMC9723177:
These are yes or no findings as the source states them, for the method shown. In cells and extracts the contact can be indirect. Here binding means that the protein was enriched with, or labelled near, the bait; the list need not be complete. Where a sequence is shown, tags or fusion partners need not be part of it.

The chains behind the UniProt entries cited, without tags or fusion partners.
UniProt Q9UHB6: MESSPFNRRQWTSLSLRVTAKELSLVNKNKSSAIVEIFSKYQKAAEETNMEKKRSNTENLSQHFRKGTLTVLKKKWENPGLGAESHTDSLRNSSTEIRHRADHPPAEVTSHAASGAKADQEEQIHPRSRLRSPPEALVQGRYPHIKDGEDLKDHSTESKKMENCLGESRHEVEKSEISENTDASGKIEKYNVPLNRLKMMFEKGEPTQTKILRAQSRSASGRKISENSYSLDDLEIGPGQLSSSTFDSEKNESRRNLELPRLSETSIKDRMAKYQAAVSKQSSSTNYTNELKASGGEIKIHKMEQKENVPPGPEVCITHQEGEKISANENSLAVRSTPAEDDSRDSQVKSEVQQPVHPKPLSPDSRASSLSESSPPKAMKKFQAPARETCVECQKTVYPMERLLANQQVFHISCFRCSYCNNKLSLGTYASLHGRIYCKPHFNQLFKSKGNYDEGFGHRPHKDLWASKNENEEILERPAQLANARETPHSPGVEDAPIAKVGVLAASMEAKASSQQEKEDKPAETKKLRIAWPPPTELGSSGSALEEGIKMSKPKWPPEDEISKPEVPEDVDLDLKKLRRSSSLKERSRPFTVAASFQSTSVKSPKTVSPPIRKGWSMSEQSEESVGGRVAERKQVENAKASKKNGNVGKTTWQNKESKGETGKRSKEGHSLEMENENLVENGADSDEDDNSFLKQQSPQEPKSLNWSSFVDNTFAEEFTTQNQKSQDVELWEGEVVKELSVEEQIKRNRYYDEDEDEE
UniProt P11940: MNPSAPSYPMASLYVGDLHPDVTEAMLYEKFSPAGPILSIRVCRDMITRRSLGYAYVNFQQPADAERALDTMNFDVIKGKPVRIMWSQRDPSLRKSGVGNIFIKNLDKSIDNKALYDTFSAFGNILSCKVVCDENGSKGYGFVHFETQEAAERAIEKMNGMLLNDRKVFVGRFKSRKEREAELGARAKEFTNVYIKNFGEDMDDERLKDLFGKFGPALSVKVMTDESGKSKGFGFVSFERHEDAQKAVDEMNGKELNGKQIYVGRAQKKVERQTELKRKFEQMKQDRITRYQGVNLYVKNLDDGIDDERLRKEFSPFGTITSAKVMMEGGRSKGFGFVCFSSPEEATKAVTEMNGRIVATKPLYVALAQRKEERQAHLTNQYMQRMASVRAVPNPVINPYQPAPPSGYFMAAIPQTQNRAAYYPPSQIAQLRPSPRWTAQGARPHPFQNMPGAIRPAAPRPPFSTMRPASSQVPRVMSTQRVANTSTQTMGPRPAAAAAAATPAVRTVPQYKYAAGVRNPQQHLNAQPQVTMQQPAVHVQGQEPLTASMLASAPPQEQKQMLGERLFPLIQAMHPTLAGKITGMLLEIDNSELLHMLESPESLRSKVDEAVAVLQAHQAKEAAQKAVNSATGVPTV

Target: T1, STAM-binding protein (STAMBP) (human (endogenous in MDA-MB-231 and BT549)) (UniProt O95630)
T1 sequence: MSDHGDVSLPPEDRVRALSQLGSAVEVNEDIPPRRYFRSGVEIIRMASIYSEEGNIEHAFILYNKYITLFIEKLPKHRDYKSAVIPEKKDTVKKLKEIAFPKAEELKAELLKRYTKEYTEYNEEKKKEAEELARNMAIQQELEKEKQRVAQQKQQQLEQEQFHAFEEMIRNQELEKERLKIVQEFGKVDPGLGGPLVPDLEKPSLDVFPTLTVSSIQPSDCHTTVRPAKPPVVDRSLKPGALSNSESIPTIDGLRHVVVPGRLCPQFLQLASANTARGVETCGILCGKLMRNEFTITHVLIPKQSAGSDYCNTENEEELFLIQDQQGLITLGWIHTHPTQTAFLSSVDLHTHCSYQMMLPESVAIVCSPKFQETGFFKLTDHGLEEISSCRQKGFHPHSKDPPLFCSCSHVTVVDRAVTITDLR
Experiment: affinity purification with mass spectrometry; MDA-MB-231 cell lysates incubated with beads conjugated with anti-STAMBP antibodies; immunoprecipitates analyzed by mass spectrometry

Row | binding | Substance
1 | binds | LIMA1 (from UniProt Q9UHB6 1-759)
2 | binds | PABPC1 (from UniProt P11940 1-636)
